Results: PubChem BioAssay AID624297 (National Center for Advancing Translational Sciences (NCATS), 2012)
Screen size: about 340,000 compounds; about 6,200 (1.8%) were called active. The shares of active, inactive and inconclusive entries below differ from those in the screen. Calls come from the whole dose curve; as a rule, active = well fitted activation curve with a large enough effect; inconclusive = small, poorly fitted or top-dose-only effect; inactive = no such curve, though single readings can be large or run the other way. Where the call is inconclusive, the potency comes from a doubtful curve fit.

assay: A quantitative high throughput screen for small molecules that induce DNA re-replication in SW480 colon adenocarcinoma cells.; note: nearly all actives have a fitted effect of over 55% in size; details: Hoechst DNA content imaging, 48 h; series mostly up to 46.1 µM
In short: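 First, 250 cells per well were seeded. Next, compound or vehicle (23 nL) was pinned in, plates sat 48 hr at 37 C. Finally Hoechst was added for 40 min before fluorescence scanning.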
Potency is the fitted concentration of half-maximal effect.

SMILES	Potency
O=C(NC1CCCC1)C(c1ccccc1F)N(C(=O)c1csnn1)c1ccccc1 (stereo not drawn)	inactive
Cc1ccc(C2Nc3ccccc3C(=O)N2Cc2ccco2)cc1 (stereo not drawn)	inconclusive: 35.5 µM [activator, single point]
Cc1c(CC(=O)N2C[C@H]3C[C@@H](C2)c2cccc(=O)n2C3)c(=O)oc2cc3occ(C(C)(C)C)c3cc12	inconclusive: 0.517 µM [activator, partial curve, poor fit]
COc1ccc(C(CNC(=O)CNC(=O)c2cccc(C)c2)N2CCOCC2)cc1 (stereo not drawn)	inactive
COc1ccc(C(=O)N2N=C(c3cccs3)CC2c2ccccc2O)cc1 (stereo not drawn)	active: 16.4 µM
Cc1ccc(C(=O)c2cc(C)sc2NC(=O)CN2CCN(C(=O)c3ccco3)CC2)cc1	inconclusive: 29.1 µM [activator, single point]
COc1ccccc1NC(=O)c1cc(OC)c(OC)cc1[N+](=O)[O-]	inactive
CC(=O)NCCNc1nc2c(-c3cccc(C(F)(F)F)c3)nnn2c2ccccc12	inconclusive: 20.6 µM [activator, partial curve, poor fit]
Cc1c(Cl)cccc1-c1ccc(CNCc2ccccn2)o1	inconclusive: 25.9 µM [activator, single point]
CC(C)(CNCc1ccccc1)NS(=O)(=O)c1ccccc1	inactive
N#Cc1c(C(F)(F)F)cc(-c2ccc(Cl)cc2)[nH]c1=O	inconclusive: 16.4 µM [activator, single point]
COc1cc(/C=N/Nc2nc(Nc3ccccc3)nc(N3CCOCC3)n2)ccc1OC(=O)c1ccco1	inconclusive: 14.6 µM [activator, single point]
N#CCC(=O)Nc1ccccc1C(=O)O	inactive
Cc1cc2ccccn2c1C(=O)c1ccc(F)cc1	inconclusive: 18.4 µM [activator, single point]
COc1ccc(/C=N\NC(=O)COc2ccc(C(C)(C)C)cc2)cc1Cn1nc(C)cc1C	inconclusive: 2.91 µM [activator, full curve, poor fit]
CC(c1ccccc1)N(NC(=O)C(O)(c1ccccc1)c1ccccc1)C(=O)c1ccccc1 (stereo not drawn)	inconclusive: 29.1 µM [activator, single point]
CCCCNC(=O)C(C)N(CCN(C)C)C(=O)CCCCCN1C(=O)NC(c2ccc(Cl)cc2)C(C(=O)OCc2ccccc2)=C1C (stereo not drawn)	inconclusive: 0.651 µM [activator, partial curve, poor fit]
COc1ccc(CN(C)C(=O)Cc2ccc(OC)c(S(=O)(=O)N3CCOCC3)c2)cc1	inconclusive: 3.26 µM [activator, partial curve, poor fit]
CN(C)c1ccc(NC(=O)c2ccc(N3CCOCC3)nc2)cc1	inconclusive: 16.4 µM [activator, partial curve, poor fit]
CNC(=O)c1ccc(NC(=O)c2cc(S(=O)(=O)N(C)C)ccc2N2CCCC2)cc1	inconclusive: 6.51 µM [activator, single point]
O=S(=O)(Nc1cc(S(=O)(=O)N2CCOCC2)ccc1NCC1CCCO1)c1ccc(F)cc1 (stereo not drawn)	inconclusive: 0.0012 µM [activator]
Cc1cccc2cc3c(NC(=O)CC(C)C)nn(C)c3nc12	inconclusive: 20.6 µM [activator, single point]

2 of these compounds, reformatted:

| SMILES | Potency |
| --- | --- |
| CC(c1ccccc1)N(NC(=O)C(O)(c1ccccc1)c1ccccc1)C(=O)c1ccccc1 (stereo not drawn) | inconclusive: 29.1 µM [activator, single point] |
| CCCCNC(=O)C(C)N(CCN(C)C)C(=O)CCCCCN1C(=O)NC(c2ccc(Cl)cc2)C(C(=O)OCc2ccccc2)=C1C (stereo not drawn) | inconclusive: 0.651 µM [activator, partial curve, poor fit] |

Continued.

SMILES	Potency
CC(C)CN(C(=O)C1CC1)C1CCS(=O)(=O)C1 (stereo not drawn)	inconclusive: 6.51 µM [activator, single point]
Cn1c(-c2ccc(F)cc2)cnc1NCc1ccc(F)cc1	inactive
CC(NC(=O)c1cc2c(s1)CS(=O)(=O)C2)c1ccccc1 (stereo not drawn)	inactive
O=C(NC1CCCCC1)c1cc(S(=O)(=O)N2CCOCC2)c(Cl)cc1Cl	inactive
Cc1nc2ccc(Nc3ccncc3)cc2s1	inconclusive: 2.91 µM [activator, full curve, poor fit]
Cc1ccc(C2=CC(c3ccc(N(C)C)cc3)n3nnnc3N2)cc1 (stereo not drawn)	inconclusive: 29.1 µM [activator, single point]
Cc1ccc2nc(-c3ccncc3)cc(C(=O)Nc3ccc4c(c3)OCCO4)c2c1	inconclusive: 18.4 µM [activator, single point]
CC(C)C[C@H](NC(=O)c1nc[nH]c1C(=O)NCCCCCN)C(=O)OCc1ccccc1	inactive
COc1cc(CN2CCC(C)CC2)ccc1OCc1ccccc1	inconclusive: 4.11 µM [activator, partial curve]
O=S(=O)(NCc1ccc(Cl)cc1)c1cccc2cccnc12	inconclusive: 6.51 µM [activator, single point]
C=CCNC(=S)N(CC=C)C1CCS(=O)(=O)C1 (stereo not drawn)	inactive
CC[C@]12c3[nH]c4ccc(OC)cc4c3CCN1C(=O)C(CC(=O)NCc1cccc(C(F)(F)F)c1)C[C@@H]2C(=O)N1CCN(C(=O)c2ccco2)CC1 (stereo partly drawn)	inactive
COc1ccc(/C=C/C(=O)NCCn2c(C)cc3ccccc32)cc1OC	inconclusive: 18.4 µM [activator, partial curve, poor fit]
O=C(c1ccco1)N1CCN(c2ncnc3scc(-c4cccs4)c23)CC1	inactive
O=c1[nH]c(CN2CCN(C/C=C/c3ccccc3)CC2)nc2cc(Cl)ccc12	inconclusive: 18.4 µM [activator, partial curve, poor fit]
CSc1nsc(SCC(=O)Nc2ccc(F)cc2F)n1	inactive
Cc1nccc(-c2sc(-c3cccs3)nc2C)n1	inconclusive: 29.1 µM [activator, single point]
C[C@@]12CCC=C[C@H]1[C@H](c1ccc(/C=C/c3ccccc3)cc1F)N(Cc1ccccc1)C2=O	inconclusive: 4.11 µM [activator, full curve]
CN1CCN(c2ccc(S(=O)(=O)Nc3ccccc3)cc2[N+](=O)[O-])CC1	inconclusive: 0.0046 µM [activator, full curve, poor fit]
COc1ccccc1C=NN=C(N)C(N)=NN=Cc1ccccc1OC	inactive
CC(=O)c1cccc(S(=O)(=O)N2CCC(c3nc4ccccc4[nH]3)CC2)c1	inactive
